These results are taken from PubChem BioAssay AID1347423 (Functional Genomics Laboratory (NCATS/FGL), 2020).

In all, about 52,000 sequences went through this assay and about 210 (0.4%) were called active.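 How the source made its calls: active means gene whose silencing raises cell survival under the drug, median off-target-corrected z-score across its silencing RNAs 2 or more; inactive means the rest.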 Some of the results follow.

A short description of the assay: Resistance to Poly (ADP-Ribose) Polymerase inhibitor: Gene Identification via Genome-wide siRNA Screen. The note with it: mouse BRCA2 R2336H ES cells, olaparib, CellTiter-Glo viability; stronger effect = higher value. In a few lines: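 Genome-wide siRNA screen (3 siRNAs/gene, 20 nM) in mouse ES cells carrying hypomorphic BRCA2 R2336H; olaparib 500 nM added 48 h post-transfection, CellTiter-Glo viability 72 h later. Normalized to plate-median negative control; MAD z-scores, gene median, seed-adjusted.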
On to GGCCUUCUAUUUUGUCAAUTT against Limd1, for which the z-score was inactive: 2.49.
Take GGAAGAAUGGAGCAGAGCUTT against Punc: the z-score was inactive: 1.67.
Turning to GGGAAUGGCGCAGACAAUGTT against Mllt10, the z-score was inactive: -1.51.
The value for GGUUGAACGGACAGAAAGGTT against Cpne3 was inactive: -1.16; that for CCUUGAUCGUGGGACCUUUTT against Slc16a14 was inactive: 1.93; that for CCAAGUAUAAGAUCGUGACTT against Card4 was inactive: 0.471.
The figure for GCAAAUUUACCUCGGUUUUTT against Olfr46 is inactive: -0.589.
The figure for GGAAAUUACGACAUACAAATT against Rp1h is inactive: 0.887.
For the sequence GUCUGCAUCACCUUCACCATT against Lhb, the z-score was inactive: -0.561.
CCUUAUUUAGCUAAAGGAGTT against Rasl2-9: the z-score was inactive: 0.458.
The figure for GGACUACGUACAGUCCAUGTT against Eef1b2 is inactive: 0.197.
The value for CCACAGCCAUUCGCACAUATT against Sec8l1 was inactive: 0.233; that for CCAAAUAUGUACUUCAUGGTT against Adipor1 was inactive: 0.946.
With GUAAGGGCGGUUCUAAGAGTT against Ggnbp1, the z-score was inactive: -1.15.
The figure for “GGGUGAGAAUCAGCUAUACTT against 0610011B16Rik” is inactive: -1.5.
Take CCAAUUGGGCCACACGUAATT against Tial1: the z-score is inactive: -0.631.
The value for GGCAUUAAUAGACCAGUUATT against Pcmt1 was inactive: -1.72.
The figure for GGUUGAUGAUGUUGUGAAATT against Mrps15 is inactive: -0.197.
On to GCGAAAGAGAGAGUGACUUTT against Olfr812, for which the z-score is inactive: -1.77.
The value for GGAGAAUCUUAGAGAUUAUTT against Pramel1 was inactive: -1.22; that for GGGCAUCAUCUAUAAAAAGTT against Avil was inactive: 0.214; that for GGCAAAGAGGCCAAAGCCATT against Zfp281 was inactive: -1.21.
The figure for GGACAGGAAAGUCAAGUACTT against Txnrd2 is inactive: -1.87; for “GGUCUUUUGAGCCAAUGGUTT against 4930470P17Rik” it is inactive: -0.261.
The value for GGUGUCAUUCCAUAGUUCUTT against Ap4m1 was inactive: 1.1.
Turning to GCAAAAAGGAGCGGUCCACTT against Plce1, the z-score is inactive: 0.642.
The figure for GGUGUUAUCUGCAUCAUCATT against Cyp4f15 is inactive: 0.255.
The value for GGAUUCCACAAUUUUUGUATT against Ncoa6 was inactive: 1.51; that for CCUUAGGAAUUCACAAUCUTT against Mcpt8 was inactive: 0.0805.
For the sequence GCUGUUUGACUAAAUGAACTT against Tlr13, the z-score is inactive: 0.26.
The figure for GGGUUGAAUCACAAUUUGUTT against Ube2e1 is inactive: -0.329; for GGCCAAAUUCAACUAGUUCTT against Nudc it is inactive: -1.54; for GGCCGUGUUAUCCAGAUUGTT against Prkcd it is inactive: -0.566.
The value for GUCUGGAGCCCUGUAUUCCTT against Nradd was inactive: 2.88; that for CCUUAACAUGUUUCAUCUATT against Sap30 was inactive: 0.776.
With “GGGCUAAGCACCUGAGAUCTT against 9430041C03Rik”, the z-score is inactive: 1.31.
The value for GGGUAUUUUCACUGAAAGUTT against Ltbp3 was inactive: 0.2.
The value for GGAGAUUCUUUCUUUGAUGTT against Fgfr1op was inactive: 0.372.
Regarding GGAGAUGAAUUGAUGACCCTT against Strap, the z-score is inactive: 0.224.
The value for GGAGUCAAUGCAAUUGUUUTT against Arl10c was inactive: 0.394.
For the sequence “GGGUCAUCCACUUUGUCAGTT against 1700047I17Rik”, the z-score is inactive: 0.323.
Take GGAAAAGGUUAAGAAAGCATT against Hrb2: the z-score was inactive: -1.48.
The figure for GGAAUGGUAGAAGCAACAGTT against Kcnj5 is inactive: 0.0691.
The figure for GGCUGGAUAAAAAUAACUUTT against Heyl is inactive: -0.732; for GGUAUUGAACCAUGGCUUATT against Mcts1 it is inactive: 0.054; for GCAAUCAACAUUGAGAUGUTT against Rufy2 it is inactive: -0.231.
The figure for “GGCAUAGUCGAGGAGAGUGTT against 4631427C17Rik” is inactive: -1.
Consider “GCCUAGAAGAAAAACUAAATT against 5730409G15Rik”, for which the z-score is inactive: 0.543.
Regarding GGCCAGGAAAGAUACAGGATT against Rab3c, the z-score was inactive: 0.567.
GCAGGUUCGAAUUCAAGGATT against Gria4: the z-score was inactive: 0.449.
The figure for GGACGGUCCUCUUAAAAGATT against Chat is inactive: -0.066; for GCUGAUUGAACUGAAUGGATT against Slc22a9 it is inactive: -0.307.
The figure for “GCCUGAACAGCCUUGAAUUTT against 1110011D13Rik” is inactive: 0.0489.
The figure for “GCCAAAUAGUUCCUUUCUGTT against 2010003O18Rik” is inactive: 1.64; for GGAUGUCCUGAAAGUAGUUTT against Plscr1 it is inactive: -1.55.
With GGUCUGUGUCAAAAACCACTT against Klk11, the z-score is inactive: -0.111.
Turning to ACAUUUUCCGAGGCUUGGUTT against Rtn4rl2, the z-score was inactive: -1.4.
On to GGACCCUGAUGAGAUGAAUTT against Gcg, for which the z-score was inactive: 0.226.
The figure for GGCCAAAGCCAGAAUCUCATT against Zfp281 is inactive: -0.796; for GGUCAUCGGUACCACCAGATT against Rdh8 it is inactive: -0.0714.
The figure for GGCCAAAGAGAUGCUGAAGTT against Spire2 is inactive: 2.49.
The value for GCCCACGUACAGAAAACAGTT against LOC213043 was inactive: 0.095; that for GGGUGUGAAAGUUGUCUUCTT against Foxb1 was inactive: -0.345; that for “GCAACUCUACUUGUCAAUUTT against 2210415F13Rik” was inactive: 0.801.
With “GGAAUCCUGGUGCUGAUUATT against 2900073H19Rik”, the z-score was inactive: -1.7.
On to GCUACUAUGUGCCCUGAUATT against Ms4a7, for which the z-score was inactive: -2.
The value for “GGCAUCUGAGUGAUAUAAATT against 1700001E16Rik” was inactive: 0.37.
